# Reference: the supplement of paper PMC12067093, “Discovery and optimisation of a covalent ligand for TRIM25 and its application to targeted protein ubiquitination” (Chemical Science, 2025)
# Some of the results follow.
# Compound: Cc1cc(ccc1-c1ccccc1)C(=O)N1CCCN(CC1)C(=O)CCl [compound 10]
# Assay: probe-labelled cysteine peptide fold change vs DMSO (competition) (log2 fold change); higher = less target engagement (more negative = stronger competition)
# Conditions: THP-1, incubation time: 4 h
# 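Note: competitive profiling in live THP-1 cells: cysteine peptides tagged with an iodoacetamide desthiobiotin (IA-DTB) probe, intensity after compound treatment relative to DMSO-treated cells.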
Target,probe-labelled cysteine peptide fold change (10 µM),probe-labelled cysteine peptide fold change (50 µM)
IGF2R_P11717_1042_FVCNDDVYSGPLK (UniProt P11717),-0.0769,-0.139
IARS2_Q9NSE4_155_IHFVPGWDCHGLPIEIK (UniProt Q9NSE4),0.0627,0.0734
IFT80_Q9P2H3_210_VDWNSVNDLILSAGEDCK (UniProt Q9P2H3),0.173,0.663
ILKAP_Q9H0C8_312_CQLTPNDR (UniProt Q9H0C8),-0.089,-0.204
IKBKB_O14920_716_KSEELVAEAHNLCTLLENAIQDTVR (UniProt O14920),0.0153,-0.00819
IBTK_Q9P2D0_615_DEDSAGCHLFVVEK (UniProt Q9P2D0),0.263,0.231
IGF2R_P11717_1476_FTCSESQVNSR (UniProt P11717),-0.0355,-0.0824
HUWE1_Q7Z6Z7_624_GLQSFVQCQPFER (UniProt Q7Z6Z7),-0.128,0.121
IARS_P41252_87_FGWDCHGLPVEYEIDK (UniProt P41252),0.0774,-0.184
IKBKG_Q9Y6K9_417_CQYQAPDMDTLQIHVMECIE (UniProt Q9Y6K9),-0.123,0.0335
IARS_P41252_336_EEEGTGVVHQAPYFGAEDYRVCMDFNIIR (UniProt P41252),-0.214,-0.192
INPP5B_P32019_129_ACPGFDSATR (UniProt P32019),-0.153,-0.0407
IGF2R_P11717_1598_DGSPCPSK (UniProt P11717),-0.127,-0.213
ILVBL_A1L0T0_568_EQVPSLGSNVACGLAYTDYHK (UniProt A1L0T0),-0.0103,0.303
IGF2R_P11717_1942_LWCSTTADYDRDHEWGFCR (UniProt P11717),-0.0758,0.0172
HYI_Q5T013_248_GFVGCEYQPR (UniProt Q5T013),-0.0639,0.13
ILF3_Q12906_295_VLECLASGIVMPDGSGIYDPCEK (UniProt Q12906),0.0645,0.125
ING2_Q9H160_124_QMELHSQCFQDPAESER (UniProt Q9H160),-0.00555,0.098
IARS2_Q9NSE4_1002_YTAESSDTLCPR (UniProt Q9NSE4),0.0672,-0.0141
IGF2R_P11717_572_GNIQLSYSDGDDCGHGKK (UniProt P11717),-0.185,-0.387
INF2_Q27J81_1029_CPASEPGLDATTASESR (UniProt Q27J81),-0.335,-0.487

Target,probe-labelled cysteine peptide fold change (10 µM),probe-labelled cysteine peptide fold change (50 µM)
IARS2_Q9NSE4_819_RSCQTALVEILDVIVR (UniProt Q9NSE4),-0.0391,0.0402
IFI16_Q16666_737_LTCFELAPK (UniProt Q16666),-0.11,-0.0776
HYOU1_Q9Y4L1_352_VTRVEFEELCADLFER (UniProt Q9Y4L1),0.184,0.123
IL1RAP_Q9NPH3_438_LCIFDRDSLPGGIVTDETLSFIQK (UniProt Q9NPH3),-0.185,0.0397
IL4I1_Q96RQ9_252_AHSCLSDR (UniProt Q96RQ9),0.145,0.314
IMPDH2_P12268_246_QLLCGAAIGTHEDDK (UniProt P12268),0.0104,0.208
ILF2_Q12905_37_GGPGGGFRPFVPHIPFDFYLCEMAFPR (UniProt Q12905),-0.0384,0.234
IARS2_Q9NSE4_819_SCQTALVEILDVIVR (UniProt Q9NSE4),0.131,-0.123
IKZF1_Q13422_254_EETNHSEMAEDLCK (UniProt Q13422),-0.107,-0.0837
IL6R_P08887_25_CPAQEVAR (UniProt P08887),-0.299,-0.583
IKBKG_Q9Y6K9_76_CEELLHFQASQR (UniProt Q9Y6K9),0.143,0.372
IDH1_O75874_269_SEGGFIWACK (UniProt O75874),-0.0182,-0.166
INF2_Q27J81_898_ELADYLCEDAQQLSLEDTFSTMK (UniProt Q27J81),-0.0546,0.129
IARS_P41252_120_MGITEYNNQCR (UniProt P41252),0.2,-0.0453
HUWE1_Q7Z6Z7_2666_VLDAESMHDCVSVVK (UniProt Q7Z6Z7),-0.122,0.0675
IMPDH2_P12268_173_EEEHDCFLEEIMTK (UniProt P12268),-0.0951,0.357
IDE_P14735_171+178_FAQFFLCPLFDESCK (UniProt P14735),-0.195,-0.297
IGF2R_P11717_1856_DGGVCLLSGTK (UniProt P11717),-0.0968,-0.169
IGF2R_P11717_1349_ETSDCSYLFEWR (UniProt P11717),0.0429,0.0829
HUWE1_Q7Z6Z7_467_LEHEVDLCR (UniProt Q7Z6Z7),-0.107,0.287
INPP4A_Q96PE3_540_SLECIIQR (UniProt Q96PE3),-0.0753,-0.119

Target,probe-labelled cysteine peptide fold change (10 µM),probe-labelled cysteine peptide fold change (50 µM)
IGBP1_P78318_118_EHFINYLTQCHCYHVAEFELPK (UniProt P78318),0.0733,-0.0679
IDH3A_P50213_351_CSDFTEEICR (UniProt P50213),-0.172,0.135
IGF2BP2_Q9Y6M1_255_ENSGAAEKPVTIHATPEGTSEACR (UniProt Q9Y6M1),0.0817,-0.335
IL1RAP_Q9NPH3_332_SYVCHAR (UniProt Q9NPH3),-0.0813,-0.034
IGBP1_P78318_116+118_EHFINYLTQCHCYHVAEFELPK (UniProt P78318),0.129,-0.739
IMPDH2_P12268_173_DIDFLKEEEHDCFLEEIMTK (UniProt P12268),-0.163,-0.307
IMMT_Q16891_697_LLSYASYCIEHGDLELAAK (UniProt Q16891),0.336,0.332
ILF2_Q12905_37_PFVPHIPFDFYLCEMAFPR (UniProt Q12905),0.0684,0.31
HUWE1_Q7Z6Z7_19_TPTEAPADCR (UniProt Q7Z6Z7),-0.363,-0.0262
IFT122_Q9HBG6_14_AEHCINDIAFKPDGTQLILAAGSR (UniProt Q9HBG6),0.0363,-0.131
IARS2_Q9NSE4_521_RPYWCISR (UniProt Q9NSE4),-0.0125,0.346
HUWE1_Q7Z6Z7_3385_ACSPCSSQSSSSGICTDFWDLLVK (UniProt Q7Z6Z7),0.283,-0.127
ILKAP_Q9H0C8_135_GEREEMQDAHVILNDITEECRPPSSLITR (UniProt Q9H0C8),-0.223,0.091
IL17RA_Q96F46-2_303_HSATVSCPEMPDTPEPIPGPGSEK (UniProt Q96F46),-0.0577,-0.0968
IGSF8_Q969P0_127_LQAQDAGIYECHTPSTDTR (UniProt Q969P0),-0.113,-0.255
HUWE1_Q7Z6Z7_19_KTPTEAPADCR (UniProt Q7Z6Z7),-0.335,-0.0272
ILF2_Q12905_311_VHTVMTLEQQDMVCYTAQTLVR (UniProt Q12905),0.0654,0.108
IGHMBP2_P38935_395_CILAGDHK (UniProt P38935),-0.0448,0.0895
INO80_Q9ULG1_1001+1011_CLLTELPSFLCVASPR (UniProt Q9ULG1),-0.186,-0.183
INPP5D_Q92835_4_VPCWNHGNITR (UniProt Q92835),-0.0998,-0.773
IGF2R_P11717_823_KYYINVCRPLNPVPGCNR (UniProt P11717),-0.0593,-0.293

Target,probe-labelled cysteine peptide fold change (10 µM),probe-labelled cysteine peptide fold change (50 µM)
IFIT3_O14879_73_HLDGNNEAALECLR (UniProt O14879),-0.0243,-0.297
IMPA1_P29218_125_KIEFGVVYSCVEGK (UniProt P29218),-0.0937,0.346
INO80_Q9ULG1_1026_VTAVPLDSYCNDR (UniProt Q9ULG1),-0.0599,0.202
IGF2R_P11717_174_EVPCYVFDEELR (UniProt P11717),-0.173,-0.0557
ILVBL_A1L0T0_315_AAVETLGVPCFLGGMAR (UniProt A1L0T0),0.0279,-0.0462
HYAL3_O43820_356_AAMACSHQR (UniProt O43820),0.205,0.00605
IL18_Q14116_74_NLNDQVLFIDQGNRPLFEDMTDSDCRDNAPR (UniProt Q14116),-0.0741,-0.334
IMPDH1_P20839_215_LPIVNDCDELVAIIAR (UniProt P20839),0.0535,0.253
IGF2R_P11717_731_ATLITFLCDR (UniProt P11717),0.14,0.00643
IARS_P41252_400_LLVATTFTHSYPFCWR (UniProt P41252),0.0125,0.177
INF2_Q27J81_971_QEEVCVIDALLADIR (UniProt Q27J81),-0.0972,0.0984
HUWE1_Q7Z6Z7_612_EVLGSLPNVFSALCLNAR (UniProt Q7Z6Z7),0.11,0.201
IFT140_Q96RY7_155_HLTHCIFR (UniProt Q96RY7),0.229,0.211
IGF2R_P11717_531_GCPEDAAVCAVDK (UniProt P11717),-0.0653,-0.042
IDE_P14735_414_AEGPQEWVFQECK (UniProt P14735),-0.0642,0.185
INPP5D_Q92835_4_MVPCWNHGNITR (UniProt Q92835),-0.162,-0.453
IL6R_P08887_277_DLQHHCVIHDAWSGLR (UniProt P08887),-0.201,-0.668
IGF2R_P11717_275_LDFCDGHSPAVTITFVCPSER (UniProt P11717),-0.105,0.197
ILF3_Q12906_116_GDLDLELVLLCK (UniProt Q12906),0.0258,0.162
ILK_Q13418_422_VALEGLRPTIPPGISPHVCK (UniProt Q13418),-0.0704,-0.187
INPP5D_Q92835_736_CYATLK (UniProt Q92835),0.0662,0.0217
